Measurements from patent publication US10561681B2, “Antimetastatic 2H-selenopheno[3,2-h]chromenes, synthesis thereof, and methods of using same agents” (Latvian Institute of Organic Synthesis, priority 2016, dated 2020).
Some of these results come from one statement about several compounds together. Some compounds share one range, which may span the group rather than tell each member.

Key:
[1] = tested on: mouse sarcoma CCRF-S180 II (CCL-8); experiment: Mouse non-metastatic cancer model, sarcoma CCL-8 s.c. in ICR mice; type: in vivo; details: s.c. Day 1, 2, 3, 4, 7, 8, 9, 10, 11; dose 5 mg/kg, total dose 45 mg/kg
Method: Six-week-old female ICR and BALB/c mice were purchased from the University of Tartu Laboratory Animal Centre (Estonia). The mice were housed five to a cage, and under standard conditions (21-23° C., 12 h light: dark cycle), fed ad libitum (R3 diet, Lactamin AB, Kimstad, Sweden) and observed daily. The experimental procedures involving experimental animals were carried out in accordance with the guidelines of the European Community, local laws and policies, and were approved by the Latvian Animal Protection Ethical Committee, the Food and Veterinary Service, Riga, Latvia.
In vivo studies were performed utilizing the mouse sarcoma CCRF-S180 II (CCL-8) and Lewis lung carcinoma (LLC) cell line. All cell lines were purchased from ATCC. The cells were grown in Dulbecco's modified Eagle's medium (Sigma) supplemented with 10% fetal calf serum (Sigma).
ICR mice were subcutaneously inoculated in the back with 5×10^6 CCL-8 cells and BALB/c mice were inoculated with 1×10^6 LLC (Lewis Lung Carcinoma) cells, which were suspended in 0.1 mL of PBS on day zero of the study. The compounds dissolved in DMSO and then in 0.1 mL water (DMSO final concentration 1%) were injected s.c. Mice in the untreated group were similarly given doses of 0.1 mL of water with DMSO. Tumor volume (tumor volume V=[…], a is maximal and b the minimal tumor diameter) was recorded twice per week. The mice were examined every other day for diseases including appearance, weight and behavior. The mice were sacrificed at day 16 of the experiment by decapitation after ketamine/xylazine anesthesia.

4T1 cells = experiment: Orthotropic model of 4T1 murine metastatic breast cancer in BALB/c mice; type: in vivo, mouse; details: 4T1 orthotropic, s.c. days 1, 2, 3, 11, dose 20 mg/kg
Method: Orthotropic model of mouse breast cancer was developed by injection of 4T1 cells in the mammary fat pad of syngeneic BALB/c mice. In this case, 4T1 cells develops solid tumors following by metastasis in lung, liver, lymph nodes, and brain (Aslakson at al., Cancer Res, 1992, 52, 1399-1405).
In our experiments seven-week-old female BALB/c mice were injected orthotopically into the fourth mammary fat pad with 10^5 4T1 cells suspended in 0.01 mL of PBS on day zero of the study. The compounds dissolved in DMSO, diluted with 0.1 mL water (DMSO final concentration 1%) and injected s.c. The compounds were administered at 1, 2, 3, 11 days, dose 20 mg/kg. Mice in the untreated group were similarly given four doses of 0.1 mL of water with DMSO. Tumor volume (tumor volume V=[…], wherein “a” is the maximal, and “b”—the minimal tumor diameter) was calculated twice per week. The mice were examined every other day on appearance, weight and behavior. The mice were sacrificed at day 16 of the experiment by decapitation under ketamine/xylazine anesthesia. After euthanasia, the mice were dissected. The primary tumor, liver and spleen were removed, weighed and studied. All metastases in the internal organs were described.

| SMILES | Anticancer activity in vivo (inhibition, %), CCL-8 tumor volume [1] | Inhibitory effect on the growth of the primary tumor (4T1 cells) |
| --- | --- | --- |
| COC(=O)c1cc2ccc3c(Br)c(CN4CCOCC4)[se]c3c2oc1=O [Compound I-9, Methyl 7-bromo-8-(morpholinomethyl)-2-oxo-2H-selenopheno[3,2-h]chromene-3-carboxylate] | 38-58% |  |
| O=C(O)c1cc2ccc3c(Br)c(C4(O)CCCCC4)[se]c3c2oc1=O [Compound I-11, 7-Bromo-8-(1-hydroxycyclohexyl)-2-oxo-2H-selenopheno[3,2-h]chromene-3-carboxylic acid] | 38-58% | up to 32% |
| COC(=O)c1cc2ccc3c(Br)c(CN4CCN(C)CC4)[se]c3c2oc1=O [Compound I-10, Methyl 7-bromo-8-((4-methylpiperazin-1-yl)methyl)-2-oxo-2H-selenopheno[3,2-h]chromene-3-carboxylate] | 38-58% | up to 32% |
